The record followed here is US20070009484A1, “Compositions and methods involving MDA-7 for the treatment of cancer” (Board of Regents, The University of Texas System, priority 2005, published 2007).

Amino acid sequences for entries named in this document (tags omitted). Residues count along the entry.
UniProt P12830, residues 155-882: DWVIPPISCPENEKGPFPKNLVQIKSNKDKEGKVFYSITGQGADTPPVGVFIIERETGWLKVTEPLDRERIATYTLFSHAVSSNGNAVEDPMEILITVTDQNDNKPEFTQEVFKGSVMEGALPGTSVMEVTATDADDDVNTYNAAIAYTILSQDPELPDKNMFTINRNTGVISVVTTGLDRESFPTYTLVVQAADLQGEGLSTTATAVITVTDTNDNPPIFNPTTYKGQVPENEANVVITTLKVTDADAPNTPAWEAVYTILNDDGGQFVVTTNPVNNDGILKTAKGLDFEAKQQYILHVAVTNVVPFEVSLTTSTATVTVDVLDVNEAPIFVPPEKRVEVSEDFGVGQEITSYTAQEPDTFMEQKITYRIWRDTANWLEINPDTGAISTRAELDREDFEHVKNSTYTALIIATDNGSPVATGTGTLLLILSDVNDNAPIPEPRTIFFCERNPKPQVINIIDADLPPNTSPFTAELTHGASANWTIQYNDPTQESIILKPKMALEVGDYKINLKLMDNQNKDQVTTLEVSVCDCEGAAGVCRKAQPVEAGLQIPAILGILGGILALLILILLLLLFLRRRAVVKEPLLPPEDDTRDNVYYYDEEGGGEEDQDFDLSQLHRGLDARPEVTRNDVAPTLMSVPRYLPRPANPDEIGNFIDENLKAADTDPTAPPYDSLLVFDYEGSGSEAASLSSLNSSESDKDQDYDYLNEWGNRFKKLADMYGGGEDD
UniProt P35222, residues 2-781: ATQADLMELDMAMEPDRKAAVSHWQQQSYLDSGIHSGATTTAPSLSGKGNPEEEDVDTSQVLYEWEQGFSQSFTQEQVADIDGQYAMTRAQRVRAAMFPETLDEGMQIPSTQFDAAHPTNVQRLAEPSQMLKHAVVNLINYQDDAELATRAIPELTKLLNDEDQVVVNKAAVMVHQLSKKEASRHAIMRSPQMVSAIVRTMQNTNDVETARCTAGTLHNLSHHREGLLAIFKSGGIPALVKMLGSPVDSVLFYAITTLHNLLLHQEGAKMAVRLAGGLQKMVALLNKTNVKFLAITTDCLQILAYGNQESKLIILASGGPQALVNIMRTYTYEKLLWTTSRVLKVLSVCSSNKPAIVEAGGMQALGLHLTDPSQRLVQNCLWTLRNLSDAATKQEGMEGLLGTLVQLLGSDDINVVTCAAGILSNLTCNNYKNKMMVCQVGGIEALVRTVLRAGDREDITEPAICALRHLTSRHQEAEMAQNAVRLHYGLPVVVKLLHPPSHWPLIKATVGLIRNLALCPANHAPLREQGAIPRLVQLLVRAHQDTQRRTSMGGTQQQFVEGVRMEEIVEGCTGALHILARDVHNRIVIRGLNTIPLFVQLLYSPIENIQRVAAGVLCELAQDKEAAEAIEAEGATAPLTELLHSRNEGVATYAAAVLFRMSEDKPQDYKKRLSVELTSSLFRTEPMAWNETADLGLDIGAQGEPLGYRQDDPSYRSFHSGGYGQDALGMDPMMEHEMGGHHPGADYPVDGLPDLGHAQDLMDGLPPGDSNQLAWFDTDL

In this test the target is E-cadherin (UniProt P12830). Put plainly: co-immunoprecipitation with anti-E-cadherin antibody, immunoblot for β-catenin, A549 and H460 lysates.

Results are given in words; binding and its absence hold for the method and conditions named. Binding seen in cells or lysates may run through a third protein. Some binding calls cover weakened binding; strength is not graded here.

For the substance β-catenin (from UniProt P35222 2-781), the binding entry was “binds”.
